Results: US20190322748A1
Results are given in words; binding and its absence hold for the method and conditions named. Some binding calls cover weakened binding; strength is not graded here.

Protein sequences, listed by entry. Tags and fused reporters are not part of them. Lines headed by an entry give the natural chain unless they say otherwise; changes in a name come on top.
UniProt Q15116: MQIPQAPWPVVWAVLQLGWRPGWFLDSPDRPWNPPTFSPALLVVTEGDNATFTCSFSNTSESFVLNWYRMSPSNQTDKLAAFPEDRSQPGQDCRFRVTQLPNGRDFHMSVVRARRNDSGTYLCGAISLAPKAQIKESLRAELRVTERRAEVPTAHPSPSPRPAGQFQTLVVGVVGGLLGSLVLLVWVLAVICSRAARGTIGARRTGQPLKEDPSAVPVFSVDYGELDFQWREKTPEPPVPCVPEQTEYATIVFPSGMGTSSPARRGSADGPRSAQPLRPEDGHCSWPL

Target: full-length human PD1 on cells (CHO-K1 stably transfected with plasmid 15311_hPD1-fl_pUC_Neo) (human) (UniProt Q15116)
Assay: cell ELISA on CHO-PD1 (row 'CHO-PD1 EC50')

binding | Binder
binds | PD1-0103-0314 (antibody, human IgG1, V domains shown) VH: EVQLLESGGGLVQPGGSLRLSCAASGFSFSSYTMSWVRQAPGKGLEWVATISGGGRDIYYPDSVKGRFTISRDNSKNTLYLQMNSLRAEDTAVYYCVLLTGRVYFALDSWGQGTLVTVSS VL: EIVLTQSPATLSLSPGERATLSCRASESVDTSDNSFIHWYQQKPGQSPRLLIYRSSTLESGIPARFSGSGSGTDFTLTISSLEPEDFAVYYCQQNYDVPWTFGQGTKVEIK
binds | PD1-0103-0315 (antibody, human IgG1, V domains shown) VH: EVQLLESGGGLVQPGGSLRLSCAASGFSFSSYTMSWVRQAPGKGLEWVATISGGGRDIYYPDSVKGRFTISRDNSKNTLYLQMNSLRAEDTAVYYCVLLTGRVYFALDSWGQGTLVTVSS VL: EIVLTQSPATLSLSPGERATLSCRASESVDTSDNSFIHWYQQKPGQSPRLLIYRSSTLESGIPARFSGSGSGTDFTLTISSLEPEDFAVYYCQQNYDVPWTFGQGTKVEIK
